Literature values as cited in patent US7541371B2, “Method for treating a motor neuron disease” (Eisai R&D Management Co., Ltd., priority 2006, dated 2009).
Some entries share one result that the patent states for a list of compounds.

Target: T1, 5-HT1A receptor (Sus scrofa, UniProt A0A4X1UTF5)
T1 construct: to a swine hippocampus membrane fraction; from tissue; host or cells: swine hippocampus
T1 sequence (A0A4X1UTF5 1-422): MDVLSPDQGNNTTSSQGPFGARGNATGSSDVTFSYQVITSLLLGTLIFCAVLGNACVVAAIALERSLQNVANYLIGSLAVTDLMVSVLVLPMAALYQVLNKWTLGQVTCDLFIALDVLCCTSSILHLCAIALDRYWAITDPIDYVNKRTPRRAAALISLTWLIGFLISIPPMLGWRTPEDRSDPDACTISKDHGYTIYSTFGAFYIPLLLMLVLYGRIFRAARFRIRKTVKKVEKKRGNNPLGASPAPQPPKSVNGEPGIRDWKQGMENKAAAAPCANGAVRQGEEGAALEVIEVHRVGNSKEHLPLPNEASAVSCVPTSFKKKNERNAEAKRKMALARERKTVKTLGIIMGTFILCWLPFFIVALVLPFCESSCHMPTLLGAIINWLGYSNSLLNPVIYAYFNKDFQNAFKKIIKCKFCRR
Settings: conclusion from the affinity test, see WO 2005/108389; cited from earlier work

Compound | Serotonin 1A receptor antagonist activity
COc1ccc2c(C)noc2c1CCN1CCC(n2ccc3ccc(C(N)=O)cc32)CC1 [Compound 14, 1-{1-[2-(6-methoxy-3-methylbenzo[d]isoxazol-7-yl)ethyl]piperidin-4-yl}-1H-indole-6-carboxamide] | excellent serotonin 1A receptor antagonist activity
COc1cc2oc(C)nc2cc1CCN1CCC(n2ccc3ccc(C(N)=O)cc32)CC1 [Compound 11, 1-{1-[2-(6-methoxy-2-methylbenzoxazol-5-yl)ethyl]piperidin-4-yl}-1H-indole-6-carboxamide] | excellent serotonin 1A receptor antagonist activity
